## Primary screen of a compound library

Mtb glucose medium: 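Phenotypic screen: M. tuberculosis growth, glucose 7H9 medium, 3 days; the read-out is not stated. Compounds at 50 µM. The record gives no direction; compounds that gave an IC50 in retests scored well above the rest, so higher reads as more growth inhibition. About 69,000 compounds were tested under these conditions; 1.1% (about 760) showed 50% or more at least once.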
Mtb cholesterol medium: 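Growth of Mycobacterium tuberculosis over 4 days (cholesterol / DPPC medium with tyloxapol); the read-out is not stated. Compounds at 50 µM. Higher reads as more growth inhibition (inferred: compounds with an IC50 in retests scored well above the rest). Of about 69,000 compounds tested this way, about 370 (0.54%) reached 50% or more in at least one test.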

Values are the deposited “Percent Effect”, in %.
The record does not define 0% and 100%; most values in the screen are far below 50% and negative numbers occur (in some assays of this library far below -100).
This is an unselected part of the compounds tested.
Two or more numbers in one place are separate tests of the same structure; such repeats can differ widely.
A dash means the value is not listed here; it may have been measured.

structure	Mtb glucose medium	Mtb cholesterol medium
O=C(O)C(F)(F)F.[H][C@]12C[C@@H](C(=O)NCCc3cccs3)CO[C@@]1([H])CCN(CC1CC1)C2	11.98	1.185
CCOCC(=O)N(C)c1ccc(F)c(Cl)c1	11.97	-18.78
Cn1nc2c(cc1=O)CN(Cc1nc(-c3ccoc3)no1)CC2	11.12	1.412
CN(C)CCn1ccnc1C1CCN(C(=O)CCc2ccncc2)CC1	3.196	11.71
Cc1cc(Cc2ccc(S(=O)(=O)N3CCSCC3)cc2)c(=O)[nH]n1	1.453	-16.29
COCc1nc(CN(CC(N)=O)C(C)C)cs1	-33.6	-13.36
O=C(C1CCCC1)N1CCCC(c2nc(O)cc(-c3ccncc3)n2)C1 (stereo not drawn)	7.779	-8.559
CC1CCN(C(=O)c2ccc(N(C)Cc3cnn(C)c3)nc2)CC1	10.22	7.146
Cc1cc(NC(=O)c2ccc(N3CCOCC3)c(C)c2)[nH]n1	-14.33	-5.183
Cc1ccsc1C(=O)N1CCC2(CC1)C(=O)N(C)CCN2CC1CC1.O=C(O)C(F)(F)F	0.5933	-6.646
Cc1cc2c(=O)n3c(nc2s1)CCN(C(=O)c1cn(C)nc1C)CC3	-0.3337	-15.3
CCc1nc(C)c(C(=O)NCCn2nc3ccccn3c2=O)s1	-17.99	-13.74
CNc1cncc(C2CCCN2C(=O)Cn2c(=O)oc3ccccc32)n1 (stereo not drawn)	8.056	4.17
CCN(CCNC(=O)C1CCCN(C(C)=O)C1)c1ccccc1C (stereo not drawn)	3.415	-3.782
CC(C)CCC(C)NC(=O)Nc1ccccn1 (stereo not drawn)	59.94	64.13
CCc1ccc(C(=O)N2CCCC(CNS(C)(=O)=O)C2)o1 (stereo not drawn)	-22.61	-21.53
Fc1cccc(-c2cccc(N3CCC(NC4CCCOC4)CC3)c2)c1 (stereo not drawn)	61.92	68.98
Cn1cc(C(=O)N2CCN(Cc3ccsc3)CC2)cn1	-14.71	-24.07
CN(CC(=O)N1CCCN(Cc2cscn2)CC1)c1cnccn1	6.013	16.2
COC(C)(C)CC(C)NC(=O)NC1CCN(Cc2ccccn2)CC1 (stereo not drawn)	-7.722	-9.932
COc1ccc(C(=O)N2C[C@@H](CN3CCCCC3)[C@@H](CO)C2)cc1Cl	7.311	3.164 and 0.4542
COc1ncc(CN(C)C(C)c2cccnc2)cn1 (stereo not drawn)	-11.21	-22.7
c1ncn(CC2CCCN(Cc3csc(-c4ccsc4)n3)C2)n1 (stereo not drawn)	-23.73	-30.61
Nc1cc(N2CCOCC(Cc3ccc4[nH]ccc4c3)C2)ncn1 (stereo not drawn)	66.33	28.42
CCn1cnnc1CNC(=O)N1CCCCCC1	5.019	-8.618
CCCc1nnc(N2CCCC(c3nnc(Cn4ccnc4)n3C)C2)s1 (stereo not drawn)	-24.24 and -5.187	-22.32
Cc1nc(C)c(C(=O)N2CCc3nc4c(C)csc4c(=O)n3CC2)s1.Cl	-14.11	-7.651
O=C(NCc1cc[nH]n1)N1CCN(c2ccccc2Cl)CC1	14.71	7.868
Cc1cc(NC(=O)c2ccccc2Br)n(C)n1	4.596	-24.87
Cc1ccc(NC(=O)c2ccc(=O)n(CC(=O)NC3CCCC3)n2)cc1	27.08	10.6
C[C@H](NC(=O)C1CCCC1)c1nc2cc(-c3ccc(F)cc3)ncn2n1	21.59	7.983
CCOc1ncccc1NC(=O)N1CCOCC1C (stereo not drawn)	-4.481	-8.161
O=C(NS(=O)(=O)c1ccccc1C(F)(F)F)c1cccc2c1OCCO2	-22.51	-12.92
CC(C)N(C)C(=O)Cn1ncc(N(C)CCc2ccccc2)cc1=O	-6.533	-15.83
O=C(O)C(F)(F)F.[H][C@@]12C[C@@H](C(=O)NC3CCC3)C[C@@]1([H])N(CC1CC1)CCO2	10.07 and -2.882	26.16
N#CCc1ccc(OCC(=O)N2CCCC(n3cccn3)C2)cc1 (stereo not drawn)	-21.43	-4.762
Cc1nc(C)c(C(=O)N2CCN(CCOc3ccccc3C)CC2)o1	11.45	-7.612
CC(=O)NCC(=O)N1Cc2nccn2CC(CN2CCCC2)C1 (stereo not drawn)	-23.59	-10.62
CC(C)(C)C(=O)NCCn1ccc(-c2ccccn2)n1	34.06	8.688
O=C(COC1CCCCC1)Nc1ccn(Cc2cccnc2)n1	5.52	-1.339
CCC[C@@H]1CN(Cc2cc3c(cc2OC)OCO3)C[C@H]1C(=O)O	29.89	1.427 and -5.281
CCN(C(=O)CN1CCC(c2n[nH]c(C3CC3)n2)CC1)C1CC1	0.993	7.111
Cc1cc(C(=O)N2CCCC(c3cc(C(F)(F)F)[nH]n3)C2)on1 (stereo not drawn)	-9.487 and -0.2493	12.77
COC(=O)c1ccoc1CN(C)Cc1cc(OC)c(OC)cc1C	7.001	8.362
Cc1c(CS(C)(=O)=O)cccc1NCCCC1CCCC1	9.34 and 26.43	14.94
O=C(O)C(F)(F)F.[H][C@]12CCC[C@@]1(COCC(=O)N1CCCC1)CN(C1CCCC1)C2	33.32	10.74
Cc1ccc(SCC(=O)NS(=O)(=O)c2ccc3c(c2)OCCO3)cc1	-1.921	7.365
O=C(CCC1CCN(C(=O)c2cnco2)CC1)NCc1cccc(Cl)c1	12.79	-3.558
COCCS(=O)(=O)NCc1ccc(N(C)C)c(C)c1	5.626	-4.827
Cc1ccsc1CN1CCC2(CC1)CC(OCc1cccnc1)CO2.O=C(O)C(F)(F)F.O=C(O)C(F)(F)F (stereo not drawn)	-1.512 and 4.106	11.55
O=S1(=O)NC(c2ccnc(N3CCCCC3)n2)=Nc2ccccc21	-18.99	-17.26
[H][C@@]12CN(Cc3ccc(-c4ccn[nH]4)s3)C[C@]1([H])[C@H]2C(=O)NC1CC1	-7.642 and -0.6531	-8.549
CCC(NC(=O)C1CCN(S(C)(=O)=O)CC1)c1ccc(OC)c(OC)c1 (stereo not drawn)	7.486	-19.32
O=C(CCc1c[nH]cn1)N1CC[C@@H](c2ccc3ccccc3c2)[C@H](O)C1	25.82	13.84
CC(C)(O)CN1CCN(C(=O)c2sccc2C2CC2)CC1	-2.943	-7.191
CN(C)c1cc(CNC(=O)Nc2ccc(N3CCCC3)nc2)ccn1	-14.39	2.414
CCN1CCN(C(=O)NC(C)c2noc(-c3ccccc3)n2)CC1 (stereo not drawn)	-14	-1.142
CCN1CCN(C2CCN(C(C(N)=O)c3ccc(F)cc3)CC2)C1=O (stereo not drawn)	-27.23 and -11.17	-10.09
COc1cccc(Cl)c1C(C(=O)O)N1CCC(Cn2cccn2)CC1 (stereo not drawn)	-40.18	-30.98
COc1cccc(N2CCN(C(=O)CO)CC2=O)c1	-16	-0.387
NC(=O)c1cn[nH]c1C1CCCN1C(=O)c1ccccn1 (stereo not drawn)	10.7	2.968
O=C(c1ccc(N2CCCCCC2)nn1)N1CCc2ccccc21	21.99	20.39
CNC(=O)c1ccc(C2CN(Cc3ccc(F)cc3)CCO2)nc1 (stereo not drawn)	-19.04	-8.08
O=C(CN1C(=O)CCC1=O)N1CCOCC1	-	-55.66
CCc1nc(NCCCn2cccn2)c2c(n1)c(C)nn2CC	-12.03	-30.77
CCc1c(C)[nH]c(C2(N)CCCCC2)nc1=O.Cl	-20.38	9.55
COCc1nc(CNc2cc(C)on2)cs1	7.009	14.39
Cc1cnn(CC2CCCCN2C(=O)c2cccc(C(N)=O)c2)c1 (stereo not drawn)	20.96	2.697
Cn1c(=O)oc2cc(S(=O)(=O)N3CCCCC3)c(Cl)cc21	-51.76	-52.79
CC1=CCN(S(=O)(=O)c2cccc(C(=O)N3CCOCC3)c2)CC1	5.815	3.328
Cc1ccc(F)c(OC2(C(=O)O)CCN(C(=O)N3CCCC3)CC2)c1	1.233 and -2.466	-9.286
COc1cccc(-c2cc(C(=O)NCCCC(F)(F)F)[nH]n2)c1	1.031	10.44
Cc1ccc(CN(CCCn2ccnc2)Cc2cnc(N(C)C)nc2)s1.O=C(O)CC(O)(CC(=O)O)C(=O)O	17.58	1.768

The last 5 entries again:

structure,Mtb glucose medium,Mtb cholesterol medium
Cn1c(=O)oc2cc(S(=O)(=O)N3CCCCC3)c(Cl)cc21,-51.76,-52.79
CC1=CCN(S(=O)(=O)c2cccc(C(=O)N3CCOCC3)c2)CC1,5.815,3.328
Cc1ccc(F)c(OC2(C(=O)O)CCN(C(=O)N3CCCC3)CC2)c1,1.233 and -2.466,-9.286
COc1cccc(-c2cc(C(=O)NCCCC(F)(F)F)[nH]n2)c1,1.031,10.44
Cc1ccc(CN(CCCn2ccnc2)Cc2cnc(N(C)C)nc2)s1.O=C(O)CC(O)(CC(=O)O)C(=O)O,17.58,1.768

Data taken from ChEMBL document CHEMBL3988442, “University of Dundee, Small-Polar-MMV Screening Library” (2021).